Data published in US8039514B2, “Sulfonamide compounds and use thereof” (Asahi Kasei Pharma Corporation, priority 2008, dated 2011).
Some of these results come from one statement about several compounds together.

Target: T1, human calcium-sensing receptor (CaSR) (Homo sapiens, UniProt P41180)
T1 construct: expressed in transfected cells
T1 sequence (P41180 20-1078): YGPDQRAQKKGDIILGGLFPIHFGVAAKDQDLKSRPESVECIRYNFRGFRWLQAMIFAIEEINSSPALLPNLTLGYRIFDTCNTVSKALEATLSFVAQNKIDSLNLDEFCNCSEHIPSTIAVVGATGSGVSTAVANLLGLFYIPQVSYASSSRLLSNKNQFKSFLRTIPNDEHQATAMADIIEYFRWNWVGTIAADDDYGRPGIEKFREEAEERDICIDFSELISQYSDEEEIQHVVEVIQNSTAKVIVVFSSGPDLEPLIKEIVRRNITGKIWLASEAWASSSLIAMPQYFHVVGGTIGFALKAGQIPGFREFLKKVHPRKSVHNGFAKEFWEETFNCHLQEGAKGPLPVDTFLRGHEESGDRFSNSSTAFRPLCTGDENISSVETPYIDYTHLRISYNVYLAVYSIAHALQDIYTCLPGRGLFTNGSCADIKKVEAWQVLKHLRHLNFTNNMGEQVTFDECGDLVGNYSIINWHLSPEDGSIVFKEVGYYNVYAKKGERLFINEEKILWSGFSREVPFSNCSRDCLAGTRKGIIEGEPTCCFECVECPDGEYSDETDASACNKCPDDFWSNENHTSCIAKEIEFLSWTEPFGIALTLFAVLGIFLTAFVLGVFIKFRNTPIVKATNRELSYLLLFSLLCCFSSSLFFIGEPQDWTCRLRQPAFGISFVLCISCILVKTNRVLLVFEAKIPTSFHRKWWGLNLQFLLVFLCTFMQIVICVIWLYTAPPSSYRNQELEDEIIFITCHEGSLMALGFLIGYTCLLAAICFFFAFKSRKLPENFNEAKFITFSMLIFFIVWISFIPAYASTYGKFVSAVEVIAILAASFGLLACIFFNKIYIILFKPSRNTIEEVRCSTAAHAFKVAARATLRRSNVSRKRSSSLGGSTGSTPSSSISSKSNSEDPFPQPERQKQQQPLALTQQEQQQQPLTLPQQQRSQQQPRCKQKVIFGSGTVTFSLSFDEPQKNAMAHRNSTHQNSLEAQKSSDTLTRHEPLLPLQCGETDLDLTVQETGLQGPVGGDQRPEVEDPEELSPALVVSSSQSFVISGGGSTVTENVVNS
Assay: intracellular Ca assay, CaSR antagonist activity in HEK293/hCaSR cells
Assay type: cell-based
Conditions: Fura2-AM, inhibition of response to calcium chloride ligand solution
Summary of the method: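 HEK293/hCaSR cells were loaded with Fura2-AM and pre-incubated with compound for 160 s at 37° C in HEPES buffer (pH 7.4, 0.8 mM CaCl2), then challenged with calcium ligand solution. Read-out was the peak 340/380 nm fluorescence ratio; inhibition is relative to no-compound (0%) and no-calcium-ligand (100%) controls.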

| Structure (SMILES) | IC50 values according to the intracellular Ca assay (CaSR antagonist activity) [μM] |
| --- | --- |
| CN(C[C@H](O)CNC(C)(C)CCCc1ccccn1)S(=O)(=O)c1cc(-c2ccc(CCC(=O)O)cc2)cc(C(F)(F)F)c1 [Exp. 9-96, (R)-3-(3′-(N-(2-hydroxy-3-(2-methyl-5-(pyridin-2-yl)pentan-2-ylamino)propyl)-N-methylsulfamoyl)-5′-(trifluoromethyl)biphenyl-4-yl)propionic acid] | 1.0 to 0.3 |
| CCc1cc(-c2ccc(CCC(=O)O)cc2)ccc1S(=O)(=O)N(C)C[C@H](O)CNC(C)(C)CCCc1ccncc1 [Exp. 9-97, (R)-3-(3′-ethyl-4′-(N-(2-hydroxy-3-(2-methyl-5-(pyridin-4-yl)pentan-2-ylamino)propyl)-N-methylsulfamoyl)biphenyl-4-yl)propionic acid] | 3.0 to 1.0 |
| CN(C[C@H](O)CNC(C)(C)CCCc1ccccc1)S(=O)(=O)c1cc(F)cc(CCC(=O)O)c1 [Exp. 9-102, (R)-3-(3-fluoro-5-(N-(2-hydroxy-3-(2-methyl-5-phenylpentan-2-ylamino)propyl)-N-methylsulfamoyl)phenyl)propionic acid] | 3.0 to 1.0 |
| CN(C[C@H](O)CNC(C)(C)CCCc1ccccc1F)S(=O)(=O)c1cc(F)cc(CCC(=O)O)c1 [Exp. 9-103, (R)-3-(3-fluoro-5-(N-(3-(5-(2-fluorophenyl)-2-methylpentan-2-ylamino)-2-hydroxypropyl)-N-methylsulfamoyl)phenyl)propionic acid] | 1.0 to 0.3 |
| CN(C[C@H](O)CNC(C)(C)CC1Cc2ccccc2C1)S(=O)(=O)c1cc(F)cc(CCC(=O)O)c1 [Exp. 9-104, (R)-3-(3-(N-(3-(1-(2,3-dihydro-1H-inden-2-yl)-2-methylpropan-2-ylamino)-2-hydroxypropyl)-N-methylsulfamoyl)-5-fluorophenyl)propionic acid] | 3.0 to 1.0 |
| CN(C[C@H](O)CNC(C)(C)CCCc1c(F)cccc1F)S(=O)(=O)c1cc(F)cc(CCC(=O)O)c1 [Exp. 9-105, (R)-3-(3-(N-(3-(5-(2,6-difluorophenyl)-2-methylpentan-2-ylamino)-2-hydroxypropyl)-N-methylsulfamoyl)-5-fluorophenyl)propionic acid] | 3.0 to 1.0 |
| CN(C[C@H](O)CNC(C)(C)CCCc1ccsc1)S(=O)(=O)c1cc(F)cc(CCCC(=O)O)c1 [Exp. 9-110, (R)-4-(3-fluoro-5-(N-(2-hydroxy-3-(2-methyl-5-(thiophen-3-yl)pentan-2-ylamino)propyl)-N-methylsulfamoyl)phenyl)butanoic acid] | 3.0 to 1.0 |
| CN(C[C@H](O)CNC(C)(C)CCCc1cccs1)S(=O)(=O)c1cc(F)cc(CCCC(=O)O)c1 [Exp. 9-111, (R)-4-(3-fluoro-5-(N-(2-hydroxy-3-(2-methyl-5-(thiophen-2-yl)pentan-2-ylamino)propyl)-N-methylsulfamoyl)phenyl)butanoic acid] | 1.0 to 0.3 |
| CN(C[C@H](O)CNC(C)(C)CCCc1c(F)cccc1F)S(=O)(=O)c1cc(F)cc(CCCC(=O)O)c1 [Exp. 9-112, (R)-4-(3-(N-(3-(5-(2,6-difluorophenyl)-2-methylpentan-2-ylamino)-2-hydroxypropyl)-N-methylsulfamoyl)-5-fluorophenyl)butanoic acid] | 1.0 to 0.3 |
| CN(C[C@H](O)CNC(C)(C)CCCc1ccsc1)S(=O)(=O)c1cc(Cl)cc(CCC(=O)O)c1 [Exp. 9-116, (R)-3-(3-chloro-5-(N-(2-hydroxy-3-(2-methyl-5-(thiophen-3-yl)pentan-2-ylamino)propyl)-N-methylsulfamoyl)phenyl)propionic acid] | 1.0 to 0.3 |
| CN(C[C@H](O)CNC(C)(C)CCCc1cccs1)S(=O)(=O)c1cc(Cl)cc(CCC(=O)O)c1 [Exp. 9-117, (R)-3-(3-chloro-5-(N-(2-hydroxy-3-(2-methyl-5-(thiophen-2-yl)pentan-2-ylamino)propyl)-N-methylsulfamoyl)phenyl)propionic acid] | 1.0 to 0.3 |
| CN(C[C@H](O)CNC(C)(C)CC1Cc2ccccc2C1)S(=O)(=O)c1cc(Cl)cc(CCCC(=O)O)c1 [Exp. 9-122, (R)-4-(3-chloro-5-(N-(3-(1-(2,3-dihydro-1H-inden-2-yl)-2-methylpropan-2-ylamino)-2-hydroxypropyl)-N-methylsulfamoyl)phenyl)butanoic acid] | 1.0 to 0.3 |
| CN(C[C@H](O)CNC(C)(C)CC1Cc2ccccc2C1)S(=O)(=O)c1cc(CCCC(=O)O)cc(OC(F)(F)F)c1 [Exp. 9-141, (R)-4-(3-(N-(3-(1-(2,3-dihydro-1H-inden-2-yl)-2-methylpropan-2-ylamino)-2-hydroxypropyl)-N-methylsulfamoyl)-5-(trifluoromethoxy)phenyl)butanoic acid] | 1.0 to 0.3 |
| CN(C[C@H](O)CNC(C)(C)CCCc1ccccc1F)S(=O)(=O)c1ccc(-c2cccc(CCC(=O)O)n2)c(Cl)c1 [Exp. 9-160, (R)-3-(6-(2-chloro-4-(N-(3-(5-(2-fluorophenyl)-2-methylpentan-2-ylamino)-2-hydroxypropyl)-N-methylsulfamoyl)phenyl)pyridin-2-yl)propionic acid] | 1.0 to 0.3 |
| CN(C[C@H](O)CNC(C)(C)CCCc1cccs1)S(=O)(=O)c1ccc(-c2cccc(CCC(=O)O)n2)c(Cl)c1 [Exp. 9-162, (R)-3-(6-(2-chloro-4-(N-(2-hydroxy-3-(2-methyl-5-(thiophen-2-yl)pentan-2-ylamino)propyl)-N-methylsulfamoyl)phenyl)pyridin-2-yl)propionic acid] | 1.0 to 0.3 |
| CN(C[C@H](O)CNC(C)(C)CC1Cc2ccccc2C1)S(=O)(=O)c1cc(-c2cccc(C(=O)O)n2)cc(C(F)(F)F)c1 [Exp. 9-171, (R)-6-(3-(N-(3-(1-(2,3-dihydro-1H-inden-2-yl)-2-methylpropan-2-ylamino)-2-hydroxypropyl)-N-methylsulfamoyl)-5-(trifluoromethyl)phenyl)picolinic acid] | 1.0 to 0.3 |
| CN(C[C@H](O)CNC(C)(C)CCCc1ccccc1)S(=O)(=O)c1cc(-c2cccc(C(=O)O)n2)cc(C(F)(F)F)c1 [Exp. 9-172, (R)-6-(3-(N-(2-hydroxy-3-(2-methyl-5-phenylpentan-2-ylamino)propyl)-N-methylsulfamoyl)-5-(trifluoromethyl)phenyl)picolinic acid] | 1.0 to 0.3 |
| CN(C[C@H](O)CNC(C)(C)CCCc1ccccc1)S(=O)(=O)c1cc(F)cc(CCC(=O)O)c1Cl [Exp. 9-173, (R)-3-(2-chloro-5-fluoro-3-(N-(2-hydroxy-3-(2-methyl-5-phenylpentan-2-ylamino)propyl)-N-methylsulfamoyl)phenyl)propionic acid] | 3.0 to 1.0 |
| CN(C[C@H](O)CNC(C)(C)CCCc1ccccc1F)S(=O)(=O)c1cc(F)cc(CCC(=O)O)c1Cl [Exp. 9-174, (R)-3-(2-chloro-5-fluoro-3-(N-(3-(5-(2-fluorophenyl)-2-methylpentan-2-ylamino)-2-hydroxypropyl)-N-methylsulfamoyl)phenyl)propionic acid] | 1.0 to 0.3 |
| CN(C[C@H](O)CNC(C)(C)CC1Cc2ccccc2C1)S(=O)(=O)c1cc(CCC(=O)O)cc(C(F)(F)F)c1 [Exp. 10-1, (R)-3-(3-(N-(3-(1-(2,3-dihydro-1H-inden-2-yl)-2-methylpropan-2-ylamino)-2-hydroxypropyl)-N-methylsulfamoyl)-5-(trifluoromethyl)phenyl)propionic acid] | 1.0 to 0.3 |
| CN(C[C@H](O)CNC(C)(C)CC1Cc2ccccc2C1)S(=O)(=O)c1ccc(CCC(=O)O)c(C(F)(F)F)c1 [Exp. 10-5, (R)-3-(4-(N-(3-(1-(2,3-dihydro-1H-inden-2-yl)-2-methylpropan-2-ylamino)-2-hydroxypropyl)-N-methylsulfamoyl)-2-(trifluoromethyl)phenyl)propionic acid] | 1.0 to 0.3 |
